From publication PMC11263397 come the findings set out here.

The test has as its target T1, Flag-tagged FBXO24 (UniProt O75426).
T1 sequence: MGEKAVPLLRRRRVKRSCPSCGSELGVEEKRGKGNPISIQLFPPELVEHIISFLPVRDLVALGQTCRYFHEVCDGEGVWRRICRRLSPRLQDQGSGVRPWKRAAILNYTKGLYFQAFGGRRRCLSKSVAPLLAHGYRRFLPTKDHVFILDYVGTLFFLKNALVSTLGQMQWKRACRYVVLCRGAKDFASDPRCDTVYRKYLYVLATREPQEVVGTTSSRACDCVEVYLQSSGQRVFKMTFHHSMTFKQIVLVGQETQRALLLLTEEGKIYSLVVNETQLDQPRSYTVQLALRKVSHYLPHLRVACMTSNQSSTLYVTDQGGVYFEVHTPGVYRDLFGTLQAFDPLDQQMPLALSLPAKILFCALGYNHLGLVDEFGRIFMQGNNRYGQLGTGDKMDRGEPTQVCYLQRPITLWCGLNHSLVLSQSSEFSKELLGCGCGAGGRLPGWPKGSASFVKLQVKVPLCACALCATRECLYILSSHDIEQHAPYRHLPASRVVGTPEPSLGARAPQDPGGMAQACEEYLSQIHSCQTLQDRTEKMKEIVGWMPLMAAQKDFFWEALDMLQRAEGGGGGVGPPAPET
The test is described as follows: pull-down; tagged FBXO24 overexpressed in HEK293T, immunoprecipitated on FLAG magnetic beads, suspended in PBS, incubated with increasing BC-1293 or control BC-1395 for 24 h at 4 °C; recombinant DARS2 or DARS1 added for 4 h at RT; washed with IP wash buffer, eluted by boiling, immunoblot; both purified. In general terms: Immunoblotting shows a protein as a band on a membrane.

No constants are given. Whether binding was seen depends on the method and setting. Some entries that bind do so weakly or less than the wild type. Where a sequence is shown, tags or fusion partners need not be part of it.

B1: recombinant human DARS2 (enzyme, UniProt Q6PI48 48-645)
chain: VVRTNTCGELRSSHLGQEVTLCGWIQYRRQNTFLVLRDFDGLVQVIIPQDESAASVKKILCEAPVESVVQVSGTVISRPAGQENPKMPTGEIEIKVKTAELLNACKKLPFEIKNFVKKTEALRLQYRYLDLRSFQMQYNLRLRSQMVMKMREYLCNLHGFVDIETPTLFKRTPGGAKEFLVPSREPGKFYSLPQSPQQFKQLLMVGGLDRYFQVARCYRDEGSRPDRQPEFTQIDIEMSFVDQTGIQSLIEGLLQYSWPNDKDPVVVPFPTMTFAEVLATYGTDKPDTRFGMKIIDISDVFRNTEIGFLQDALSKPHGTVKAICIPEGAKYLKRKDIESIRNFAADHFNQEILPVFLNANRNWNSPVANFIMESQRLELIRLMETQEEDVVLLTAGEHNKACSLLGKLRLECADLLETRGVVLRDPTLFSFLWVVDFPLFLPKEENPRELESAHHPFTAPHPSDIHLLYTEPKKARSQHYDLVLNGNEIGGGSIRIHNAELQRYILATLLKEDVKMLSHLLQALDYGAPPHGGIALGLDRLICLVTGSPSIRDVIAFPKSFRGHDLMSNTPDSVPPEELKPYHIRVSKPTDSKAERAH
In the case of B1, the binding entry is given as “binds”.

B2: recombinant human DARS1 (enzyme, UniProt P14868 1-501)
chain: MPSASASRKSQEKPREIMDAAEDYAKERYGISSMIQSQEKPDRVLVRVRDLTIQKADEVVWVRARVHTSRAKGKQCFLVLRQQQFNVQALVAVGDHASKQMVKFAANINKESIVDVEGVVRKVNQKIGSCTQQDVELHVQKIYVISLAEPRLPLQLDDAVRPEAEGEEEGRATVNQDTRLDNRVIDLRTSTSQAVFRLQSGICHLFRETLINKGFVEIQTPKIISAASEGGANVFTVSYFKNNAYLAQSPQLYKQMCICADFEKVFSIGPVFRAEDSNTHRHLTEFVGLDIEMAFNYHYHEVMEEIADTMVQIFKGLQERFQTEIQTVNKQFPCEPFKFLEPTLRLEYCEALAMLREAGVEMGDEDDLSTPNEKLLGHLVKEKYDTDFYILDKYPLAVRPFYTMPDPRNPKQSNSYDMFMRGEEILSGAQRIHDPQLLTERALHHGIDLEKIKAYIDSFRFGAPPHAGGGIGLERVTMLFLGLHNVRQTSMFPRDPKRLTP
Regarding B2, the binding entry is given as “no binding”.
